This note sets out measurements from doi:10.1101/2022.12.14.520423.

This data set deals with T1, CLAMP (CLAMPmel) (Drosophila melanogaster) (UniProt Q9V9N4).
T1 sequence (looked up): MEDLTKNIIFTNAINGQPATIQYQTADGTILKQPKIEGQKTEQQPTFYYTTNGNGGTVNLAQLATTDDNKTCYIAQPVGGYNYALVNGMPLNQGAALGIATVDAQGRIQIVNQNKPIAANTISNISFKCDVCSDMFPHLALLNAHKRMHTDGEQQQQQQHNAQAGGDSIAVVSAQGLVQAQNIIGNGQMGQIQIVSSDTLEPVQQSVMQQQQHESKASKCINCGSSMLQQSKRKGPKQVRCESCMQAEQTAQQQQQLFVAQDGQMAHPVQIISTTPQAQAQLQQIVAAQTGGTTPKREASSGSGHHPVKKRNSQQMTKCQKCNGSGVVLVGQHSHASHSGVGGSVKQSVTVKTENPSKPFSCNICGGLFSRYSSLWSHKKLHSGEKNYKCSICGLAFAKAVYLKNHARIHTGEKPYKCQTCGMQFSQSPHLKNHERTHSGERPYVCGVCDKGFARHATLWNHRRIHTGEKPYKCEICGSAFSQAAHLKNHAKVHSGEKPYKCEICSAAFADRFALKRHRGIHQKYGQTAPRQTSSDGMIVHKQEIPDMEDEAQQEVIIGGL
The data set can be described thus: EMSA. Conditions: recombinant protein; residues 1-561; label: biotin. On the technique in general: A gel shift assay detects complexes by their altered migration in electrophoresis.

Where a protein sequence is shown, tags need not be part of it.

Take “CACCACGAATGTCACTGAGGTACTAATGCTAGCTCTTCGGGCAGCGCTTATATTTATACCAAAAACTCAAAAAGACTGAAAACATATTTCCATACATACTACCCTTGTAACATATTCGACAAAACAGCGAACAGCGAATATATCGTTCTCTTTCTAACTTATCACTCATTTTCTATATAAGCGATACACAAACGAGACGCACGATTATTGTGTTTTTAACA (double strand) [Dvir GAΔ H3/H4 promoter]”: the binding result is “binds”.

For the sequence “CACCACGAATGTCACTGAGGTACTAATGCTAGCTCTTCGGGCAGCGCTTATATTTATACCAAAAACCAAAAAGACGAGCGAGTGAAAACATATTTCCATCTCGCTCACATACTACCCTTGTAACATATTCGACAAAACAGCGAACAGCGAATATATCGTTCTCTTTCTAACTTATCACTCATTTTCTATATAAGCGATACACAAACGAGACGCACGATTATTGTGTTTTTAACA (double strand) [Wild-type Dvir H3/H4 promoter]”, the binding result is given as “binds”.

As to “CACAGCACGAAAGTCACTAAAGAACTAATTTCAACGTTTCTGTGTGCCCCTATTTATAGGTAAAACGACAAAAACCCGAGAGAGTACGAACGATATGTTCGTTCGCTTTTCGCTCGTCAAATGAAATGGCCTCTGTTTTTCTCTCTCTCTCTCTCTCTCTTTCACCGTCCACGATTGCTATATAAGTAGGTAGCAAATGCTCTGATCGTTTATTGTGTTTTCAAAC (double strand) [Wild-type Dmel H3/H4 promoter]”, the binding result is “binds”.
